Assay results taken from patent WO2007042289A2 (dated 2007).
These are yes or no findings as the source states them, for the method shown. Binding can be weak; no strength is given.

B1: PMP9A7 (VHH)
VHH: EVQLVESGGGLVQAGGSLRLSCAVSGRTFSGDVMGWFRQAPGKEREFVAGFSRSTSTTHYADSVKGRFTISGDNAKNTVYLQMNSLKPEDTAVYYCAANSRSSWVIFTIKGQYDRWGQGTQVTVSS
B2: PMP8B5 (VHH)
VHH: EVQLVESGGGLVQAGGSLRVSCVASIRSFSSYVVGWFRQAPGKDREFVAGIAWGDGITYYADSVKGRFTISRDHAKNTAYLQMNSLRPEDTAVYYCAVRPGMIITTIQATYGFWGQGTQVTVSS
B3: PMP11C9 (VHH)
VHH: EVQLVESGGGLVQAGASLRLSCAASGRYFSDYNMAWFRQAPGKEREFVAHISWLGGRTYYRDSVKGRFTISRDNAKDTVYLQMNSLKPEDTAVYSCAAGSPYGTELPYTRIEQYAYWGQGTQVTVSS
B4: PMP11H6 (VHH)
VHH: AVQLVESGGGLVQAGGSLRLSCAASGRTFSTYTMAWFRQAPGKEREFVQGISRSDGGTYDADSVKGRFTISRDNAKNTVYLQMNSLKPEDTAVYFCAAANEYWVYVNPNRYTYWGRGTQVTVSS
B5: PMP7E12 (VHH)
VHH: EVQLVESGGGLVQAGGSLRLSCTASGRTFENNAMAWFRQAAGKEREFVAGFSGSGGATYYAHSVEGRFTISRDNAKNTVDLQMNSLSLEDTAVYLCAARRKSGEVVFTIPARYDYWGQGTQVTVSS
notes: Anti-EGFR Nanobody
B6: 27-1-H7 (VHH)
VHH: EVQLVESGGGLVQAGGSLRLSCAASGRGAWAWFRQAPGKEREFVGGLSWSADSTYYADSVKGRFTISRDNAKNTVFLQMTNLKADDTAVYYCAAHRRPFASVFTTTRMYDYWGPGTQVTVSS
B7: PMP9C1 (VHH)
VHH: EVQLVESGGGLVQAGGSLRLSCAASGRTFSGFAMGWFRQAPGKEREFVAAISWSGGSLLYVDSVKGRFTISRDNAKNTVHLQMNSLKPGDTAVYYCAAMVGPPPRSLDYGLGNHYEYDYWGQGTQVTVSS
notes: Anti-EGFR Nanobody; tag not described; also called Nanobody family X; Type C Nanobody

The binders below were run against T1, purified EGFR (Sigma) (human, UniProt P00533 25-1210, limits assumed).
T1 construct: Bought; purified from human A431 cells; also called solid phase coated EGFR

binding, binds:
B1
B2
B3
B4
B5
B6
B7
